# Reference: the supplement of paper PMC8728848
# The list shows a part of the results.
# Columns and labels:
# Assay in all cases: glycan array binding signal (z-score within array); higher = stronger binding
# Settings in all cases: glycan notation: IUPAC condensed, linker removed; mutation: E321K
# [1] = biological target: GlcNAc(b1-3)Gal(b1-4)Glc
# In short: (§1)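 Glycan array data were curated from 3228 arrays in the Consortium for Functional Glycomics database and kept only where the protein sequence was available. Glycan names were converted to IUPAC-condensed notation, and columns mapping to the same glycan were averaged. The binding signal is a within-array Z-score, averaged across arrays of the same protein sequence at different concentrations or buffers and across linkers. Negative Z-scores can be read as non-binding.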
# [2] = biological target: GlcNAc(b1-3)Gal(b1-4)GlcNAc
# In short: as §1
# [3] = biological target: GlcNAc(b1-3)Gal(b1-4)GlcNAc(b1-3)Gal(b1-4)GlcNAc
# In short: as §1
# [4] = biological target: GlcNAc(b1-3)GalNAc
# In short: as §1
# [5] = biological target: GlcNAc(b1-3)Man
# In short: as §1
# [6] = biological target: GlcNAc(b1-3)[GlcNAc(b1-4)][GlcNAc(b1-6)]GlcNAc
# In short: as §1
# [7] = biological target: GlcNAc(b1-3)[GlcNAc(b1-6)]Gal(b1-4)GlcNAc
# In short: as §1
# [8] = biological target: GlcNAc(b1-3)[GlcNAc(b1-6)]GalNAc
# In short: as §1
# [9] = biological target: GlcNAc(b1-4)Gal(b1-4)GlcNAc
# In short: as §1
# [10] = biological target: GlcNAc(b1-4)GlcNAc
# In short: as §1
# [11] = biological target: GlcNAc(b1-4)GlcNAc(b1-4)GlcNAc
# In short: as §1
# [12] = biological target: GlcNAc(b1-4)GlcNAc(b1-4)GlcNAc(b1-4)GlcNAc(b1-4)GlcNAc
# In short: as §1
# [13] = biological target: GlcNAc(b1-4)GlcNAc(b1-4)GlcNAc(b1-4)GlcNAc(b1-4)GlcNAc(b1-4)GlcNAc
# In short: as §1
# [14] = biological target: GlcNAc(b1-4)[GlcNAc(b1-6)]GalNAc
# In short: as §1
# [15] = biological target: GlcNAc(b1-6)Gal(b1-4)GlcNAc
# In short: as §1
# [16] = biological target: GlcNAc(b1-6)GalNAc
# In short: as §1
# [17] = biological target: GlcNAc3Prop(b1-4)GlcNAc
# In short: as §1
# [18] = biological target: Kdn(a2-3)Gal(b1-3)GlcNAc
# In short: as §1
# [19] = biological target: Kdn(a2-3)Gal(b1-4)GlcNAc
# In short: as §1
# [20] = biological target: Man(a1-2)Man(a1-2)Man(a1-3)Man
# In short: as §1
# [21] = biological target: Man(a1-2)Man(a1-2)Man(a1-6)[Man(a1-3)]Man
# In short: as §1
# [22] = biological target: Man(a1-2)Man(a1-3)Man
# In short: as §1
# [23] = biological target: Man(a1-2)Man(a1-3)[Man(a1-2)Man(a1-6)]Man
# In short: as §1
# [24] = biological target: Man(a1-2)Man(a1-3)[Man(a1-2)Man(a1-6)]Man(a1-6)[Man(a1-2)Man(a1-2)Man(a1-3)]Man
# In short: as §1
# [25] = biological target: Man(a1-2)Man(a1-3)[Man(a1-2)Man(a1-6)]Man(a1-6)[Man(a1-2)Man(a1-2)Man(a1-3)]Man(b1-4)GlcNAc(b1-4)GlcNAc
# In short: as §1
# [26] = biological target: Man(a1-2)Man(a1-3)[Man(a1-6)]Man(a1-6)[Man(a1-2)Man(a1-3)]Man(b1-4)GlcNAc(b1-4)GlcNAc
# In short: as §1
# [27] = biological target: Man(a1-2)Man(a1-6)[Man(a1-3)]Man(a1-6)[Man(a1-2)Man(a1-2)Man(a1-3)]Man
# In short: as §1
# [28] = biological target: Man(a1-2)Man(a1-6)[Man(a1-3)]Man(a1-6)[Man(a1-2)Man(a1-2)Man(a1-3)]Man(b1-4)GlcNAc(b1-4)GlcNAc
# In short: as §1
# [29] = biological target: Man(a1-3)[Man(a1-6)]Man
# In short: as §1
# [30] = biological target: Man(a1-3)[Man(a1-6)]Man(a1-6)[Man(a1-2)Man(a1-3)]Man(b1-4)GlcNAc(b1-4)GlcNAc
# In short: as §1
# [31] = biological target: Man(a1-3)[Man(a1-6)]Man(a1-6)[Man(a1-3)]Man
# In short: as §1
# [32] = biological target: Man(a1-3)[Man(a1-6)]Man(a1-6)[Man(a1-3)]Man(b1-4)GlcNAc(b1-4)GlcNAc
# In short: as §1
# [33] = biological target: Man(a1-3)[Man(a1-6)]Man(b1-4)GlcNAc(b1-4)GlcNAc
# In short: as §1
# [34] = biological target: Man(a1-6)Man
# In short: as §1
# [35] = biological target: Man(b1-4)GlcNAc
# In short: as §1
# [36] = biological target: Neu5Ac(a2-3)Gal
# In short: as §1
# [37] = biological target: Neu5Ac(a2-3)Gal(b1-3)GalNAc
# In short: as §1
binder,measurement,setting,value
Surfactant Protein D (Human); Neck + Carbohydrate Recognition Domain (NCRD) (Homo sapiens) (protein) MLLFLLSALVLLTQPLGYLEAEMKTYSHRTMPSACTLVMCSSVESGLPGRDRDGREGPRGEKGDPGLPGAAGQAGMPGQAGPVGPKGDNGSVGEPGPKGDTGPSGPPGPPGVPGPAGREGALGKQGNIGPQGKPGPKGEAGPKGEVGAPGMQGSAGARGLAGPKGERGVPGERGVPGNTGAAGSAGAMGPQGSPGARGPPGLKGDKGIPGDKGAKGESGLPDVASLRQQVEALQGQVQHLQAAFSQYKKVELFPNGQSVGEKIFKTAQFVKPFTEAQLLCTQAGGQLASPRSAAENAALQQLVVAKNEAAFLSMTDSKTEGKFTYPTGESLVYSNWAPGKPNDDGGSEDCVEIFTNGKWNDRACGEKRLVVCEF,glycan array binding signal (z-score),[1],-0.659
same,glycan array binding signal (z-score),[2],-0.532
same,glycan array binding signal (z-score),[3],-0.73
same,glycan array binding signal (z-score),[4],-1.48
same,glycan array binding signal (z-score),[5],-0.467
same,glycan array binding signal (z-score),[6],0.464
same,glycan array binding signal (z-score),[7],-0.357
same,glycan array binding signal (z-score),[8],-0.62
same,glycan array binding signal (z-score),[9],0.48
same,glycan array binding signal (z-score),[10],2.94
same,glycan array binding signal (z-score),[11],-1.01
same,glycan array binding signal (z-score),[12],0.163
same,glycan array binding signal (z-score),[13],-0.106
same,glycan array binding signal (z-score),[14],1.29
same,glycan array binding signal (z-score),[15],-0.718
same,glycan array binding signal (z-score),[16],0.9
same,glycan array binding signal (z-score),[17],-0.82
same,glycan array binding signal (z-score),[18],-0.089
same,glycan array binding signal (z-score),[19],-0.628
same,glycan array binding signal (z-score),[20],0.995
same,glycan array binding signal (z-score),[21],0
same,glycan array binding signal (z-score),[22],0.763
same,glycan array binding signal (z-score),[23],-0.073
same,glycan array binding signal (z-score),[24],-0.797
same,glycan array binding signal (z-score),[25],0.067
same,glycan array binding signal (z-score),[26],-0.618
same,glycan array binding signal (z-score),[27],-0.222
same,glycan array binding signal (z-score),[28],0.149
same,glycan array binding signal (z-score),[29],-0.067
same,glycan array binding signal (z-score),[30],0.498
same,glycan array binding signal (z-score),[31],-0.383
same,glycan array binding signal (z-score),[32],-0.809
same,glycan array binding signal (z-score),[33],-0.27
same,glycan array binding signal (z-score),[34],-1.05
same,glycan array binding signal (z-score),[35],-0.51
same,glycan array binding signal (z-score),[36],-0.44
same,glycan array binding signal (z-score),[37],-0.355

# Exported tab-delimited: part of the list above.
binder	measurement	setting	value
Surfactant Protein D (Human); Neck + Carbohydrate Recognition Domain (NCRD) (Homo sapiens) (protein) MLLFLLSALVLLTQPLGYLEAEMKTYSHRTMPSACTLVMCSSVESGLPGRDRDGREGPRGEKGDPGLPGAAGQAGMPGQAGPVGPKGDNGSVGEPGPKGDTGPSGPPGPPGVPGPAGREGALGKQGNIGPQGKPGPKGEAGPKGEVGAPGMQGSAGARGLAGPKGERGVPGERGVPGNTGAAGSAGAMGPQGSPGARGPPGLKGDKGIPGDKGAKGESGLPDVASLRQQVEALQGQVQHLQAAFSQYKKVELFPNGQSVGEKIFKTAQFVKPFTEAQLLCTQAGGQLASPRSAAENAALQQLVVAKNEAAFLSMTDSKTEGKFTYPTGESLVYSNWAPGKPNDDGGSEDCVEIFTNGKWNDRACGEKRLVVCEF	glycan array binding signal (z-score)	[25]	0.067
same	glycan array binding signal (z-score)	[26]	-0.618
